# Counter-ions that a name gives are not always drawn. The list shows a part of the results. Single values are uncertain here, since repeats match poorly.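 Wild-type human LRH-1, a heavily sumoylated nuclear receptor, is tetracycline-inducible in stable JEG3 cells. RT-qPCR measured SUMO-sensitive APOC3 and MUC1 transcripts, which rise with SUMO-less LRH-1 or UBC9 knockdown, versus TBP and DMSO controls. Robust Z-scores beyond ±2 flagged primary hits, followed by toxicity and TBP filtering.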
# System: JEG3 expressing hLRH-1
# Assay: APOC3 transcript change (ddCt vs TBP and DMSO), Z-score over library; higher = higher APOC3 expression
# Settings: 10 µM; time (hr): 24
row,SMILES,APOC3 transcript change (Z-score)
1,N=C(NCCCCCCNC(=N)NC(=N)Nc1ccc(Cl)cc1)NC(=N)Nc1ccc(Cl)cc1 [chlorhexidine],0.11
2,CCCCCCCCCCCCCCCC(=O)OC/C=C(C)/C=C/C=C(C)/C=C/C1=C(C)CCCC1(C)C [retinyl palmitate],0.212
3,CO/N=C(\C(=O)N[C@@H]1C(=O)N2C(C(=O)O)=C(COC(C)=O)CS[C@H]12)c1csc(N)n1 [cefotaxime sodium],1.95
4,COc1cc(C(=O)N2CCOCC2)cc(OC)c1OC [trimetozine],0.127
5,C=COCC(F)(F)F [fluroxene],-0.327
6,CC(=O)Nc1c(I)cc(I)c(C(=O)O)c1I [acetriazoic acid],0.518
7,O=NN(CCCl)C(=O)NC1CCCCC1 [lomustine],0.813
8,Cc1ccc(N(CC2=NCCN2)c2cccc(O)c2)cc1 [Phentolamine mesylate],-0.422
9,CC(C)CC(NC(=O)C(C)NC(=O)CNC(=O)C(NC=O)C(C)C)C(=O)NC(C)C(=O)NC(C(=O)NC(C(=O)NC(C(=O)NC(Cc1c[nH]c2ccccc12)C(=O)NC(CC(C)C)C(=O)NC(Cc1c[nH]c2ccccc12)C(=O)NC(CC(C)C)C(=O)NC(Cc1c[nH]c2ccccc12)C(=O)NC(CC(C)C)C(=O)NC(Cc1c[nH]c2ccccc12)C(=O)NCCO)C(C)C)C(C)C)C(C)C (stereo not given) [gramicidin (gramicidin a shown)],-0.0693
10,CC#C[C@]1(O)CC[C@H]2[C@@H]3CCC4=CC(=O)CCC4=C3[C@@H](c3ccc(N(C)C)cc3)C[C@@]21C [mifepristone],0.165
11,O=c1ccc2ccccc2o1 [coumarin],-0.774
12,CC(CN(C)C)CN1c2ccccc2Sc2ccccc21 (stereo not given) [trimeprazine tartrate],0.441
13,CC(C)n1c(/C=C/[C@@H](O)C[C@@H](O)CC(=O)O)c(-c2ccc(F)cc2)c2ccccc21 [fluvastatin],1.29
14,COc1cc(NS(=O)(=O)c2ccc(N)cc2)ncn1 [sulfamonomethoxine],-0.368
15,CC1(C)O[C@@H]2C[C@H]3[C@@H]4C[C@H](F)C5=CC(=O)C=C[C@]5(C)[C@@]4(F)[C@@H](O)C[C@]3(C)[C@]2(C(=O)CO)O1 [fluocinolone acetonide],-0.777
16,Cc1cc(C)nc(NS(=O)(=O)c2ccc(N)cc2)n1 [sulfamethazine],0.261
17,CC(=O)Nc1c(I)c(NC(C)=O)c(I)c(C(=O)O)c1I [diatrizoic acid],0.304
18,C[C@@H]1C/C=C/C=C/C=C/C=C/[C@H](O[C@@H]2O[C@H](C)[C@@H](O)[C@H](N)[C@@H]2O)C[C@@H]2O[C@](O)(C[C@@H](O)C[C@H]3O[C@@H]3/C=C/C(=O)O1)C[C@H](O)[C@H]2C(=O)O [natamycin],-0.35
19,CC(C)[N+]1(C)C2CC[C@H]1C[C@@H](OC(=O)C(CO)c1ccccc1)C2 (stereo not given in full) [ipratropium bromide],-0.101
20,O=C(O)P(=O)(O)O [foscarnet sodium],-0.745
21,CC(C)(CO)C(O)C(=O)NCCC(=O)NCCSSCCNC(=O)CCNC(=O)C(O)C(C)(C)CO (stereo not given) [pantethine],-1.06
22,O=C(Oc1cccc2cccnc12)c1ccccc1 [benzoxiquine],1.72
23,CCOC(=O)Nc1nc2ccccc2[nH]1 [lobendazole],0.806
24,CC1Cc2ccccc2N1NC(=O)c1ccc(Cl)c(S(N)(=O)=O)c1 (stereo not given) [indapamide],-1.11
25,CC(=O)Nc1ccc(OC(=O)c2ccccc2O)cc1 [acetaminosalol],-0.711

row,SMILES,APOC3 transcript change (Z-score)
1,OCc1ccccc1O[C@@H]1O[C@H](CO)[C@@H](O)[C@H](O)[C@H]1O [salicin],3.18
2,N[C@H]1CONC1=O [levcycloserine],-0.56
3,N#CC(c1ccc(Cl)cc1)c1c(Cl)cc(-n2ncc(=O)[nH]c2=O)cc1Cl (stereo not given) [diclazuril],-0.698
4,CC1CCC(NC(=O)N(CCCl)N=O)CC1 (stereo not given) [semustine],0.596
5,CC(C)(CO)[C@@H](O)C(=O)NCCC(=O)O [pantothenic acid(d) na salt],-0.0616
6,CC(Cc1cccc(C(F)(F)F)c1)NCCOC(=O)c1ccccc1 (stereo not given) [benfluorex hydrochloride],-0.455
7,CC(C)(C)CC(C)(C)c1ccc(OCCOCC[N+](C)(C)Cc2ccccc2)cc1 [benzethonium chloride],-2
8,C=C1CC[C@H](O)C/C1=C/C=C1\CCC[C@]2(C)[C@@H]([C@H](C)/C=C/[C@H](C)C(C)C)CC[C@@H]12 [ergocalciferol],1.08
9,O=C(COc1ccc(Cl)cc1)N1CCN(Cc2ccc3c(c2)OCO3)CC1 [fipexide hydrochloride],0.278
10,N=C(N)Nc1nc(CSCCC(=N)NS(N)(=O)=O)cs1 [famotidine],-0.123
11,CN(CCOc1ccc(CC2SC(=O)NC2=O)cc1)c1ccccn1 (stereo not given) [rosiglitazone],-1.51
12,CC(C)(C)NC(=O)[C@H]1CC[C@H]2[C@@H]3CC[C@H]4NC(=O)C=C[C@]4(C)[C@H]3CC[C@]12C [finasteride],1.46
13,CC(C)[N+](C)(CCOC(=O)C1c2ccccc2Oc2ccccc21)C(C)C [propantheline bromide],-0.187
14,CC/C=C\C/C=C\C/C=C\C/C=C\C/C=C\C/C=C\CCC(=O)O [doconexent],-0.589
15,O=c1oc2cc(O)ccc2s1 [thioxolone],-0.617
16,CC(C)NCC(O)COc1cccc2[nH]ccc12 (stereo not given) [Pindolol],0.221
17,C[C@H](CS)C(=O)N1CCC[C@H]1C(=O)O [Captopril],0.0668
18,C[C@]12C=CC(=O)C=C1CCC1C2[C@@H](O)C[C@@]2(C)C1CC[C@]2(O)C(=O)CO (stereo not given in full) [prednisolone],0.553
19,Cc1ccsc1/C=C/C1=NCCCN1C [morantel citrate],0.411
20,NCCc1ccc(O)c(O)c1 [Dopamine hydrochloride],0.468
21,CCCCC1C(=O)N(c2ccccc2)N(c2ccccc2)C1=O [Phenylbutazone],-0.0448
22,COc1ccc2[nH]c(S(=O)Cc3ncc(C)c(OC)c3C)nc2n1 (stereo not given) [tenatoprazole],-0.401
23,Oc1nc2ccccc2n1C1CCN(CCCC(c2ccc(F)cc2)c2ccc(F)cc2)CC1 [Pimozide],1.26
24,Cc1c(Nc2ncccc2C(=O)O)cccc1C(F)(F)F [flunixin meglumine],-1.27
25,CCN1CCN(c2cc3c(cc2F)c(=O)c(C(=O)O)cn3C2CC2)CC1 [enrofloxacin],0.712

# Two entries drawn at random from those above, as already listed:
row,SMILES,APOC3 transcript change (Z-score)
18,C[C@]12C=CC(=O)C=C1CCC1C2[C@@H](O)C[C@@]2(C)C1CC[C@]2(O)C(=O)CO (stereo not given in full) [prednisolone],0.553
13,CC(C)[N+](C)(CCOC(=O)C1c2ccccc2Oc2ccccc21)C(C)C [propantheline bromide],-0.187

# Next structures follow.

row,SMILES,APOC3 transcript change (Z-score)
1,CC(=O)Nc1ccc(C(=O)O)cc1 [acedoben],-0.544
2,CCN(CC)CCOCCOC(=O)C1(c2ccccc2)CCCC1 [Carbetapentane citrate],-0.278
3,CC1OC(O[C@H]2/C=C/C=C/C=C/C=C/C=C/C=C/C=C/[C@H](C)[C@@H](O)[C@@H](C)[C@H](C)OC(=O)CC(O)CC(O)CCC(O)C(O)CC(O)C[C@]3(O)C[C@H](O)C(C(=O)O)C(C2)O3)C(O)[C@H](N)C1O (stereo not given in full) [amphotericin b],0.162
4,O=C1C(O)=C(O)C(=O)C(O)=C1O [tetroquinone],-0.271
5,O=C1c2ccccc2C(=O)C1c1ccc(Cl)cc1 [chlorindione],-1.22
6,O=C(O)CCC(=O)Nc1ccc(S(=O)(=O)Nc2nccs2)cc1 [succinylsulfathiazole],0.574
7,C[C@]12C=CC(=O)C=C1CCC1C2[C@@H](O)C[C@@]2(C)C1CC[C@]2(O)C(=O)COP(=O)(O)O (stereo not given in full) [prednisolone sodium phosphate],1.56
8,CN(C)c1nc(N(C)C)nc(N(C)C)n1 [altretamine],-0.208
9,NNC(=O)c1ccncc1 [isoniazid],0.489
10,N[C@@H](COP(=O)(O)O)C(=O)O [O-Phospho-L-serine],-0.749
11,COc1cccc(OC)c1C(=O)N[C@@H]1C(=O)N2[C@@H]1SC(C)(C)[C@@H]2C(=O)O [methicillin sodium],-0.0886
12,Nc1cc(C(Cl)=C(Cl)Cl)c(S(N)(=O)=O)cc1S(N)(=O)=O [clorsulon],-0.139
13,CC1(C)OC(=O)C(OCC2CC2)=C1c1ccc(S(C)(=O)=O)cc1 [firocoxib],0.422
14,CCOc1ccc(Cc2nccc3cc(OCC)c(OCC)cc23)cc1OCC [ethaverine hydrochloride],2.03
15,C#C[C@]1(O)CC[C@H]2[C@@H]3CCC4=Cc5oncc5C[C@]4(C)[C@H]3CC[C@@]21C [danazol],-0.0846
16,NC[C@H]1O[C@H](OC2[C@@H](N)C[C@@H](N)[C@H](O[C@H]3O[C@H](CO)[C@@H](O)[C@H](N)[C@H]3O)[C@H]2O)[C@H](O)[C@@H](O)[C@@H]1O (stereo not given in full) [kanamycin sulfate],-0.143
17,CC12CC3CC(C)(C1)CC(N)(C3)C2 [Memantine hydrochloride],-0.752
18,C=C(CC)C(=O)c1ccc(OCC(=O)O)c(Cl)c1Cl [ethacrynic acid],-0.172
19,c1ccc2[nH]c(-c3cscn3)nc2c1 [thiabendazole],1.43
20,CCC[C@@H]1C[C@@H](C(=O)N[C@@H]([C@H]2O[C@H](SC)[C@H](O)[C@@H](O)[C@H]2O)[C@@H](C)O)N(C)C1 [lincomycin hydrochloride],0.548
21,CCOC(=O)[N-]c1c[n+](N2CCOCC2)no1 [molsidomine],-1.16
22,CCN(CC)CCNc1ccc(CO)c2sc3ccccc3c(=O)c12 [hycanthone],2.88
23,Cn1c(=O)c2c(ncn2CC2OCCO2)n(C)c1=O [doxofylline],0.33
24,CCCCC1(COC(=O)CCC(=O)O)C(=O)N(c2ccccc2)N(c2ccccc2)C1=O [suxibuzone],-0.0245
25,CC(CCC(=O)O)[C@H]1CCC2C3C(=O)C[C@@H]4CC(=O)CC[C@]4(C)C3CC(=O)[C@@]21C (stereo not given in full) [dehydrocholic acid],-0.21

# As entered above:
# Under APOC3 transcript change (Z-score), NC[C@H]1O[C@H](OC2[C@@H](N)C[C@@H](N)[C@H](O[C@H]3O[C@H](CO)[C@@H](O)[C@H](N)[C@H]3O)[C@H]2O)[C@H](O)[C@@H](O)[C@@H]1O (stereo not given in full) [kanamycin sulfate] has the entry -0.143
# Under APOC3 transcript change (Z-score), CCOc1ccc(Cc2nccc3cc(OCC)c(OCC)cc23)cc1OCC [ethaverine hydrochloride] has the entry 2.03
# Under APOC3 transcript change (Z-score), CC1(C)OC(=O)C(OCC2CC2)=C1c1ccc(S(C)(=O)=O)cc1 [firocoxib] has the entry 0.422
